From publication PMC3723668 come the findings set out here.

What all share (assay): pull-down; GST-SH3 domains (5-20 ug) on glutathione beads incubated 2 h at 4°C with lysate of HEK293 cells expressing the tagged protein; 20 mM Tris-HCl pH 7.5, 0.5% NP40, 150 mM NaCl, 10% glycerol, 1 mM Na3VO4; immunoblot with antibodies against tags; only the target purified
A general note: In western blotting, separated proteins are transferred to a membrane and probed.

For assay [1], the target named is T1, GST-fused SH3A domain of ITSN2 (residues 749-826) (human) (UniProt Q9NZM3).
T1 sequence: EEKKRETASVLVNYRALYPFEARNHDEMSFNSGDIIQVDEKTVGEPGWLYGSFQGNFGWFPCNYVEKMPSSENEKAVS

The target of assay [2] is T2, GST-fused SH3B domain of ITSN2 (residues 891-964) (human) (UniProt Q9NZM3).
T2 sequence: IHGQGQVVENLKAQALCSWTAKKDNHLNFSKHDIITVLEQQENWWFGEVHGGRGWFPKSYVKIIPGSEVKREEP

In assay [3] the target is T3, GST-fused SH3D domain of ITSN2 (residues 1044-1127) (human) (UniProt Q9NZM3).
T3 sequence: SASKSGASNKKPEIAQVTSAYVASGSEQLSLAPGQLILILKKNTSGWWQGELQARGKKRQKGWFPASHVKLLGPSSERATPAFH

Results are given in words; binding and its absence hold for the method and conditions named. Binding seen in cells or lysates may run through a third protein. Some results given as binding are weak or reduced against the parent protein; the word gives no strength. Where a sequence is shown, tags or fusion partners need not be part of it.

B1: Omni-CdGAP central domain (residues 174-683) (domain or fragment, UniProt Q2M1Z3 174-683)
chain: WAPNLLRSKEIEATGCNGDAAFLAVRVQQVVIEFILNHVDQIFNNGAPGSLENDENRPIMKSLTLPALSLPMKLVSLEEAQARSLATNHPARKERRENSLPEIVPPMGTLFHTVLELPDNKRKLSSKSKKWKSIFNLGRSGSDSKSKLSRNGSVFVRGQRLSVEKATIRPAKSMDSLCSVPVEGKETKGNFNRTVTTGGFFIPATKMHSTGTGSSCDLTKQEGEWGQEGMPPGAEGGFDVSSDRSHLQGAQARPPPEQLKVFRPVEDPESEQTAPKMLGMFYTSNDSPSKSVFTSSLFQMEPSPRNQRKALNISEPFAVSVPLRVSAVISTNSTPCRTPPKELQSLSSLEEFSFHGSESGGWPEEEKPLGAETSAASVPKKAGLEDAKAVPEAPGTVECSKGLSQEPGAHLEEKKTPESSLSSQHLNELEKRPNPEKVVEEGREAGEMESSTLQESPRARAEAVLLHEMDEDDLANALIWPEIQQELKIIESEEELSSLPPPALKTSPIQ
Regarding B1, the binding entry in assay [1], in assay [2] and in assay [3] was “binds” throughout.

B2: Flag-Numb (protein, UniProt P49757 1-651)
chain: MNKLRQSFRRKKDVYVPEASRPHQWQTDEEGVRTGKCSFPVKYLGHVEVDESRGMHICEDAVKRLKAERKFFKGFFGKTGKKAVKAVLWVSADGLRVVDEKTKDLIVDQTIEKVSFCAPDRNFDRAFSYICRDGTTRRWICHCFMAVKDTGERLSHAVGCAFAACLERKQKREKECGVTATFDASRTTFTREGSFRVTTATEQAEREEIMKQMQDAKKAETDKIVVGSSVAPGNTAPSPSSPTSPTSDATTSLEMNNPHAIPRRHAPIEQLARQGSFRGFPALSQKMSPFKRQLSLRINELPSTMQRKTDFPIKNAVPEVEGEAESISSLCSQITNAFSTPEDPFSSAPMTKPVTVVAPQSPTFQANGTDSAFHVLAKPAHTALAPVAMPVRETNPWAHAPDAANKEIAATCSGTEWGQSSGAASPGLFQAGHRRTPSEADRWLEEVSKSVRAQQPQASAAPLQPVLQPPPPTAISQPASPFQGNAFLTSQPVPVGVVPALQPAFVPAQSYPVANGMPYPAPNVPVVGITPSQMVANVFGTAGHPQAAHPHQSPSLVRQQTFPHYEASSATTSPFFKPPAQHLNGSAAFNGVDDGRLASADRHTEVPTGTCPVDPFEAQWAALENKSKQRTNPSPTNPFSSDLQKTFEIEL
As for B2, in assay [3], the binding entry is “binds”.
